Our source for the binding signal values is article PMC7819943, “Rice protein-binding microarrays: a tool to detect cis-acting elements near promoter regions in rice”.

Protein sequences, listed by entry. Tags and fused reporters are not part of them.
UniProt Q0JBA9, entry or part of it: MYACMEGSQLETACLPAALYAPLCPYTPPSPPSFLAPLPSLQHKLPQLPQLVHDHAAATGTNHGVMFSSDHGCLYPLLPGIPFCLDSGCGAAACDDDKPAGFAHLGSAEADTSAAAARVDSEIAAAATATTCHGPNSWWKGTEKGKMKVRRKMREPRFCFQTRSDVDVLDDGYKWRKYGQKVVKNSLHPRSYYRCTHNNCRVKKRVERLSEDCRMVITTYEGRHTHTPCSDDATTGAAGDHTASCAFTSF

This is one part of the list.

The assay deals with OsWRKY34 (Oryza sativa, UniProt Q0JBA9 1-250). In words: protein-binding microarray (RPBM); PBS, 2% BSA, 51.3 ng/ul salmon testes DNA, 50 uM zinc acetate, 200 nM TF, 25 C, 1 h; high values mean tight binding. The conditions noted are these: protein: recombinant; tags: N-terminal polyhistidine and DsRed monomer fusion (pET32a); label: CyDye5-dUTP incorporated in the synthesized complementary strand; 3' TTTTT single-stranded linker to array surface; dsDNA, one strand shown. The procedure, abridged:
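Transcription factors, each fused N-terminally to a polyhistidine tag and DsRed, were expressed in E. coli BL21-CodonPlus and purified on Ni–NTA. A custom Agilent array was made double-stranded by primer extension with Cy5-dUTP and blocked with 2% BSA. It was incubated with 200 nM protein in PBS, 2% BSA, salmon testes DNA and 50 µM zinc acetate at 25 °C for 1 h, then washed. The binding signal is per-feature fluorescence intensity (arbitrary units) read on an Axon 4000B scanner.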
For the sequence “TTCCGGCATGAGTTTTTTTATTGGGCTGGTGATGGGGAGACGGAGTCACCTAGTGCAG”, the binding signal is 8700 fluorescence intensity (a.u.). For “GAAAGATTTTTTTTTCTTATCTCTCACTCGATTTTCTCACCGGAGTCACCTAGTGCAG”, the binding signal is 8210 fluorescence intensity (a.u.). Turning to “TGCTCCAAGTGTTGGTCTTTCTTCCATTTCCCAAATCCCACGGAGTCACCTAGTGCAG”, the binding signal was 11600 fluorescence intensity (a.u.). “TGCAAAAAATCTTTTGTCTTAGGTCAGCTTCTCACAATCCCGGAGTCACCTAGTGCAG”: the binding signal is 8240 fluorescence intensity (a.u.).

Turning to “GATCACAGCAGCCGCCGCCATCGCCATCTCTCGGACGGAACGGAGTCACCTAGTGCAG”, the binding signal was 11400 fluorescence intensity (a.u.).

“TAATGGTGGTTTTAAATTTGTTTAAAGTTTGATCTTCAACCGGAGTCACCTAGTGCAG”: the binding signal is 8060 fluorescence intensity (a.u.). In the case of “CTGAAGTTCTAAACATTATGCCAGACACATAAAGTCTTACCGGAGTCACCTAGTGCAG”, the binding signal was 8330 fluorescence intensity (a.u.). Take “TCTATACCGAATACACATCCCTATACGTATAAGTCTATAGCGGAGTCACCTAGTGCAG”: the binding signal was 8840 fluorescence intensity (a.u.). “AGCTCTCAATACGTGACCATGAATCAGATTCAAACCTGAACGGAGTCACCTAGTGCAG”: the binding signal is 8200 fluorescence intensity (a.u.). With “TTGGTGGGCTTTTTTGAGGGACCTTAACTCTCTCCTTGCTCGGAGTCACCTAGTGCAG” the figure was 9720 fluorescence intensity (a.u.).

“TTTTTTTCAATTCGTTTTTTTTTCATTTTTCATCGTCTTTCGGAGTCACCTAGTGCAG”: the binding signal is 8400 fluorescence intensity (a.u.). As to “TGTGTTGTGTTGTGACTTGTGTGAGTTGTTACCGGCAAGTCGGAGTCACCTAGTGCAG”, the binding signal is 8420 fluorescence intensity (a.u.). Consider “ACGATCAGGCTTCAAACTCAGTGATATCCTTTCAGTCCGACGGAGTCACCTAGTGCAG”, for which the binding signal is 8780 fluorescence intensity (a.u.).

In the case of “TAGCTTTGGCACCTTGCGCGCGCGTACACAGCCGCTTAAGCGGAGTCACCTAGTGCAG”, the binding signal is 8550 fluorescence intensity (a.u.). With “TCCGTTCCCGCCACACAAACGACGCATGCTTTTTTTCTCCCGGAGTCACCTAGTGCAG”, the binding signal is 9890 fluorescence intensity (a.u.). To “AGAAAGCCCATTTTGCCCTTTGTGCTTCAGAACATCGAGCCGGAGTCACCTAGTGCAG” belongs 8020 fluorescence intensity (a.u.).

“TCACTTTATGCCATTTTTAGTCAAATCAAATTTTGGTAAACGGAGTCACCTAGTGCAG”: the binding signal is 8220 fluorescence intensity (a.u.). To “TACCTTTTGTGGTGGGTTGTGTCTTCATATTTGAATTCGTCGGAGTCACCTAGTGCAG” belongs 11700 fluorescence intensity (a.u.). To “TATGCGACATATCTGCTTATGCTATATACTATTTCTCCAACGGAGTCACCTAGTGCAG” belongs 10100 fluorescence intensity (a.u.); to “TCACCCACATCCCTGTCTCTCTACCCTACCATGGACAGCTCGGAGTCACCTAGTGCAG”, 9760 fluorescence intensity (a.u.). With “GTTCAGGAGCTATCTGTTTTATTTCAGGGATGGTTATTTGCGGAGTCACCTAGTGCAG”, the binding signal was 8030 fluorescence intensity (a.u.).

In the case of “AGATACTCAACGCCATCACGAGGGCCAAGGGGAGGAGATGCGGAGTCACCTAGTGCAG”, the binding signal is 8170 fluorescence intensity (a.u.). For “CTATGGTCCAAATTATCTTTCTCCTTTTTTCCTCTAATTACGGAGTCACCTAGTGCAG”, the binding signal is 8160 fluorescence intensity (a.u.). For “GGGGAGTTGGGGACGGTGATCTCCACGGGGCGGATGGACTCGGAGTCACCTAGTGCAG”, the binding signal was 13100 fluorescence intensity (a.u.). With “TTATGGCAGTCCAAAAACATGTTGTCACCATTGTCCATGTCGGAGTCACCTAGTGCAG” the figure was 8480 fluorescence intensity (a.u.). For the sequence “GAGTTATTAGCTTTTCTTGGTCTTGGTATACCTATGAAATCGGAGTCACCTAGTGCAG”, the binding signal is 9670 fluorescence intensity (a.u.). With “TGTTTTTTCTCTGCATGAGTGTATTTCTCTTATTTGTTTACGGAGTCACCTAGTGCAG” the figure was 8580 fluorescence intensity (a.u.); with “GTAATCACGTAATCACGCCCAGCATCCAGAACGTTCCTCCCGGAGTCACCTAGTGCAG”, 8200 fluorescence intensity (a.u.); with “GGATTGCCGGTTTTTGGTGTCCTTTTCGCATCAGCTTTAGCGGAGTCACCTAGTGCAG”, 9120 fluorescence intensity (a.u.).

Take “CGTTGAGCGTACAGTGCATTTCCTTTCCTACATGTCGCCTCGGAGTCACCTAGTGCAG”: the binding signal was 10500 fluorescence intensity (a.u.). To “CTTTCCTTCGTTGTCAACTCTTCATGCATCCATTTTGATTCGGAGTCACCTAGTGCAG” belongs 9250 fluorescence intensity (a.u.). Consider “AATAAAAACATTGTTTCTGTTTTTTCTTTTTTCTAATTTTCGGAGTCACCTAGTGCAG”, for which the binding signal is 8740 fluorescence intensity (a.u.). To “GATTTAGAGTTGGAGTCAGTCGGTTTGACCAGCCACATGCCGGAGTCACCTAGTGCAG” belongs 8690 fluorescence intensity (a.u.).

“GCCTTTTTCATGTTGCACGCTATCATTTCGAGATCAAGACCGGAGTCACCTAGTGCAG”: the binding signal is 10500 fluorescence intensity (a.u.). With “TCTACGGCGGGGCGGCGGCGTGGAGGCAACTCGGCACGGGCGGAGTCACCTAGTGCAG”, the binding signal was 9960 fluorescence intensity (a.u.). On to “GCCTTTTTCTTCTTCTTCTTCTTCTTTCTCTCTCCTGCAGCGGAGTCACCTAGTGCAG”, for which the binding signal was 9670 fluorescence intensity (a.u.). With “GGCTTTTTTGTTGGGCTTCTTTTGATCAAAAACGTTGTTTCGGAGTCACCTAGTGCAG” the figure was 12000 fluorescence intensity (a.u.); with “GTGCTTGCCTGCAAATATTGATTTATACATACAGACCGGTCGGAGTCACCTAGTGCAG”, 13600 fluorescence intensity (a.u.). To “CACATGTTTGACTATTCGTCTTATTTAAAAATTTTATGCACGGAGTCACCTAGTGCAG” belongs 8770 fluorescence intensity (a.u.); to “ATATTCTTTATCTACCTATCGCCATTGCTATTTTTTTAATCGGAGTCACCTAGTGCAG”, 9370 fluorescence intensity (a.u.). With “GTGCGGGAGACGTGGTGGTGGGTGCTGCTGCTGTGGATCCCGGAGTCACCTAGTGCAG” the figure was 8470 fluorescence intensity (a.u.); with “CTTTCCTCTACACTAGTGGGTGGCGCCGTGGGTGGGAGGGCGGAGTCACCTAGTGCAG”, 12200 fluorescence intensity (a.u.).
